From ChEMBL document CHEMBL3988442, “University of Dundee, Small-Polar-MMV Screening Library” (2021).

Chains of the proteins cited; added tags and fusions are not shown. Residues count along the entry.
UniProt Q8IDJ8, 1-583: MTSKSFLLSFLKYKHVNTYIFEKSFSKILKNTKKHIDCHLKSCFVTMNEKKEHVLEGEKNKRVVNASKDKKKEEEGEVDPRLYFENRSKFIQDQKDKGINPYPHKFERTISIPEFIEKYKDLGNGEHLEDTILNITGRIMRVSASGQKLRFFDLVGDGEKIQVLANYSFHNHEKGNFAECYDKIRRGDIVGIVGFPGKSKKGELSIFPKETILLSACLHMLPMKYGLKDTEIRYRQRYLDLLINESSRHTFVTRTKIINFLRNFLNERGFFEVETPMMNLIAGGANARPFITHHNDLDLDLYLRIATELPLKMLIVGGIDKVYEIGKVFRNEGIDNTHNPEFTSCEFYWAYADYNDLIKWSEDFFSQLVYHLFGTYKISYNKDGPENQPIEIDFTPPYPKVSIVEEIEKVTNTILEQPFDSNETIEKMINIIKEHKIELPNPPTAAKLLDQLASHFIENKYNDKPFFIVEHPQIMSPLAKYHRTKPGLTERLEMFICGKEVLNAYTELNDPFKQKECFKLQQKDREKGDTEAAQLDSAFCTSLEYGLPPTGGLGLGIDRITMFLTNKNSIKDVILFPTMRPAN
UniProt P9WPC5, whole entry: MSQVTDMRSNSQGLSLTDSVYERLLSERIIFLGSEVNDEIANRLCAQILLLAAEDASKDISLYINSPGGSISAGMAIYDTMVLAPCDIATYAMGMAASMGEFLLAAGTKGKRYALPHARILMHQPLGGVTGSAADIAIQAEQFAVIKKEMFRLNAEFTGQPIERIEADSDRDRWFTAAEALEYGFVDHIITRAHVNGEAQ
UniProt P9WPC3, whole entry partner: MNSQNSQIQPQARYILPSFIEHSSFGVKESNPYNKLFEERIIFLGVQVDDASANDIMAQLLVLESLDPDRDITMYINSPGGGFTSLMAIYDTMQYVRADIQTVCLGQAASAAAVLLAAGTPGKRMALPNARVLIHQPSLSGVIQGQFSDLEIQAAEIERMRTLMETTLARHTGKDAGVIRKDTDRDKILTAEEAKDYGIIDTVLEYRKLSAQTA
UniProt P9WFT3, whole entry: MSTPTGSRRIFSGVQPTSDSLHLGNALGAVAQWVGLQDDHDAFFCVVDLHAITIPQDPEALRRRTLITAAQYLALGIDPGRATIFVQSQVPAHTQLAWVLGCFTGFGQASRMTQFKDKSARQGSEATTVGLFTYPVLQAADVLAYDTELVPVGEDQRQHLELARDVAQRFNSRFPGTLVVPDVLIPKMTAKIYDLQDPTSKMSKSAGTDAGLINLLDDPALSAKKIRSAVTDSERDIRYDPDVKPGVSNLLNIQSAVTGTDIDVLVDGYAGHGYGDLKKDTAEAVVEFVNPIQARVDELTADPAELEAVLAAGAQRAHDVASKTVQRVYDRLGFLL

The filed quantity is “Percent Effect” (%). How 0% and 100% were set is not recorded. Most values in the screen are low, and negative values occur. Compounds were drawn at random from those tested, without regard to their results. A dash means the value is not listed here; it may have been measured.

PfKRS1: 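Enzyme assay of the cytosolic lysyl-tRNA synthetase in 384-well plates, read by luminescence. Target: Lysine-tRNA ligase, Plasmodium falciparum 3D7 (UniProt Q8IDJ8). Compounds at 30 µM. Higher reads as stronger inhibition, judged from the few compounds that gave an IC50. Size under these conditions: about 69,000 compounds, about 49 of them at 50% or above in at least one test.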
ClpP1P2: 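Protease assay of ClpP1P2, read by the AMC dye that it sets free. Target: ClpP1P2, Mycobacterium tuberculosis (UniProt P9WPC5 and UniProt P9WPC3). Compounds at 50 µM. Higher reads as stronger inhibition, judged from the few compounds that gave an IC50. Most other retested compounds had strongly negative values. About 69,000 compounds were tested under these conditions; 0.015% (about 10) showed 50% or more at least once.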
MtTrpRS: 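Enzyme assay of tryptophanyl-tRNA synthetase; the read-out is not stated. Target: Tryptophan-tRNA ligase, Mycobacterium tuberculosis (UniProt P9WFT3). Compounds at 10 µM. Higher most likely means stronger inhibition; the record gives no direction and few retests gave an IC50. About 65,000 compounds were tested under these conditions; 0.098% (about 64) showed 50% or more at least once.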

| # | SMILES | PfKRS1 | ClpP1P2 | MtTrpRS |
|---|---|---|---|---|
| 1 | `CN(C)CCNC(=O)c1ccccc1NC(=O)c1cc(Cl)ccc1Cl` | 6.974 | 4.464 | 4.984 |
| 2 | `CN1CCCN(C(=O)c2cccn2-c2ccc3c(c2)OCCO3)CC1` | 2.14 | 1.566 | -1.322 |
| 3 | `CC(C(=O)N1CCc2sccc2C1)N1CCC(N2CCCC2)CC1` (configuration not stated) | 1.532 | -2.815 | -1.343 |
| 4 | `Cc1nn(C)c(Cl)c1C1CCCN1Cc1nc(-c2ccco2)no1` (configuration not stated) | 1.219 | -13.7 | -9.097 |
| 5 | `CN1CC2(CCN(CCOCCO)CC2)CC(c2ccccc2)C1=O` (configuration not stated) | -3.577 | -13.05 | 2.91 |
| 6 | `Cc1cccc2c1ccn2CC(=O)NC[C@@H]1CCCN2CCCC[C@H]12` | 5.814 | -5.989 | 2.022 |
| 7 | `COc1c(Br)cc(Br)cc1CNC(C)Cn1cccn1` (configuration not stated) | -0.313 | 3.314 | 0.7194 |
| 8 | `CCC[C@@H]1CN(C(=O)Cc2sc(C)nc2C)C[C@H]1C(=O)O` | 7.699 | -7.326 | -2.294 |
| 9 | `Cc1ccc(CC(=O)N2CCCC(n3nc(C)cc3C)C2)cn1` (configuration not stated) | -0.2631 | -3.477 | -5.731 |
| 10 | `CCNC(=O)N1CC[C@@H](CC(=O)O)[C@@H](CC2=NCCc3ccccc32)C1` | 1.04 | -12.79 | -0.2259 |
| 11 | `COC(=O)c1ccc(C2SCC(=O)Nc3c2cnn3C(C)(C)C)cc1` (configuration not stated) | -2.265 | -4.443 | 1.359 |
| 12 | `CN(CCC1CCOCC1)C(=O)C1CCC(=O)N(Cc2ccccn2)C1` (configuration not stated) | -4.024 | -0.6975 | -4.633 |
| 13 | `O=c1c(-c2ccnc(N3CCC[C@H]3CO)n2)cnc2sccn12` | 4.471 | 6.387 | - |
| 14 | `Cc1ccc(CN2CCC3(CC2)CCN(Cc2ccoc2)CC3)cc1` | 3.399 | 5.272 | -3.607 |
| 15 | `COc1ccccc1COCC(O)CN(C)c1ccc(C)cc1C` (configuration not stated) | 0.1894 | 17.46 | -0.5236 |
| 16 | `CC(C)NCC1OCCc2cn(C)nc21` (configuration not stated) | -1.726 | -2.073 | -2.562 |
| 17 | `O=S1(=O)NC[C@H]2CCN(Cc3ccccc3)CC[C@H]21` | 0.96 | 5.461 | -0.07047 |
| 18 | `Cc1ccccc1-n1cnc(Cl)c1CO` | -0.3051 | -1.54 | 0.3871 |
| 19 | `CC(=O)NCCNCc1cn(CCN2CCSCC2)nc1C` | 7.436 | 12.36 | 1.098 |
| 20 | `Cc1noc(C2CN(S(=O)(=O)C3CC3)Cc3ccnn3C2)n1` (configuration not stated) | -4.791 | 3.682 | 14.97 |
| 21 | `Cc1nc(CN2CCCN(c3nccs3)CC2)no1` | 3.14 | 11.66 | 10.01 |
| 22 | `CC(O)CCN(C)C(=O)Nc1ccc(Br)cc1` (configuration not stated) | -1.753 | -0.7067 | 5.861 |
| 23 | `O=C(c1ccno1)N1CCC2(CC(=O)N(c3ccc4c(c3)OCO4)C2)C1` (configuration not stated) | 4.743 | -0.09753 | -3.294 |
| 24 | `CC(=O)N1CCC(Cc2nccnc2-c2c(C)n[nH]c2C)C1` (configuration not stated) | 1.582 | 3.155 | - |
| 25 | `O=C(NCCc1ccncc1)c1ccc(N2CCOCC2)cc1` | 4.12 | -12.66 | -1.656 |
| 26 | `O=C(c1ccccc1F)N1CC(c2nc(C3CC3)no2)C1` | 7.119 | 5.857 | -3.419 |
| 27 | `CN(C)c1ncc(-c2cc(C(=O)NCCO)n(CC3CC3)c2)cn1` | 2.767 | -8.601 | 4.411 |
| 28 | `Nc1no[n+]([O-])c1C(=O)NCc1cccnc1` | -1.419 | -8.465 | 0.3236 |
| 29 | `CCC(CC)CS(=O)(=O)NC(=O)C1CCCC1` | -1.379 | 6.095 | 10.8 |
| 30 | `CN(C)c1cc(CNC(=O)c2cn(-c3ccc(F)cc3)nn2)ccn1` | -0.8747 | 4.863 | 2.893 |
| 31 | `CC(=O)N1Cc2nccn2CC(CNC(=O)c2ccnnc2)C1` (configuration not stated) | -0.6896 | -10.8 | 19.86 |
| 32 | `Nc1nc2c(s1)C(c1c(F)cccc1Cl)CC(=O)N2` (configuration not stated) | 41.61 | -20.03 | 5.695 |
| 33 | `Cc1noc(CCCC(=O)N2CCCCC2CNS(C)(=O)=O)n1` (configuration not stated) | 7.651 | -15.88 | 2.549 |
| 34 | `CC(C)C(=O)Nc1cccc(OCC(=O)NCc2ccccc2F)c1` | 3.895 | -14.91 | -2.039 |
| 35 | `CCCNC(=O)CCNC(=O)N1CCc2c(F)ccc(F)c2C1` | 3.992 | -5.697 | 4.322 |
| 36 | `O=c1ccc2c([nH]1)CCN(S(=O)(=O)c1ccc3c(c1)OCCO3)C2` | -0.8035 | -5.691 | -6.459 |
| 37 | `O=C(NCCCn1cccn1)NCC(c1ccco1)N1CCCC1` (configuration not stated) | 1.165 | -61.27 | -6.019 |
| 38 | `CC(=O)N[C@@H]1CN(C2CCN(c3ccccc3F)CC2)C[C@H]1C(C)C` | 1.042 | 3.532 | -3.43 |
| 39 | `CN(C)c1ncccc1CNS(=O)(=O)c1ccc(F)cc1F` | 0.5947 | -22.17 | -5.656 |
| 40 | `c1cnc(C2CCCN(Cc3ccsc3)C2)cn1` (configuration not stated) | 0.5407 | -7.107 | -6.496 |
| 41 | `CNC(=O)C1CC(=O)N(c2cccc(F)c2)C1` (configuration not stated) | 0.6935 | -8.512 | 0.3018 |
| 42 | `CCCSCC(=O)NS(=O)(=O)c1ccc2c(c1)OCCO2` | 0.3274 | 0.8187 | 2.358 |
| 43 | `Cc1nc(CN2CCCC2c2noc(C3CC3)n2)nc2ccccc12` (configuration not stated) | -3.499 | -14.23 | 33.87 |
| 44 | `Cc1ccsc1CNC1CCCN(Cc2noc(C3CC3)n2)C1` (configuration not stated) | 0.3295 | 6.061 | -5.726 |
| 45 | `CCn1cnnc1CNC(=O)N1CCN(c2nc(C)c(C)s2)CC1` | 2.469 | 5.05 | -1.359 |
| 46 | `Cc1ccc(C(=O)N2CCC3(CCN3Cc3ccc(F)cc3)C2)cn1` (configuration not stated) | 0.4696 | -8.819 | - |
| 47 | `COCC1CN(c2ccc(Cl)cc2C#N)CCO1` (configuration not stated) | 2.29 | -10.98 | -3.616 |
| 48 | `COc1cccc(CN2CCC3(CC2)CCN(c2ncc(C)cn2)C3)c1` | 0.8747 | -7.167 | 1.621 |
| 49 | `Cc1nc(C)n(CC2CCCN(CCCS(=O)(=O)N(C)C)C2)n1` (configuration not stated) | 1.32 | 0.9017 | 1.018 |
| 50 | `c1cc2c(cc1Cn1cc(C3CCOC3)nn1)CCCO2` (configuration not stated) | -1.528 | -8.973 | 5.266 |
| 51 | `COCC(=O)N1C[C@@H](C)[C@](O)(C(C)C)C1` | -1.267 | -7.29 | 4.258 |

The first 4 entries again:

SMILES	PfKRS1	ClpP1P2	MtTrpRS
CN(C)CCNC(=O)c1ccccc1NC(=O)c1cc(Cl)ccc1Cl	6.974	4.464	4.984
CN1CCCN(C(=O)c2cccn2-c2ccc3c(c2)OCCO3)CC1	2.14	1.566	-1.322
CC(C(=O)N1CCc2sccc2C1)N1CCC(N2CCCC2)CC1 (configuration not stated)	1.532	-2.815	-1.343
Cc1nn(C)c(Cl)c1C1CCCN1Cc1nc(-c2ccco2)no1 (configuration not stated)	1.219	-13.7	-9.097